# From paper PMC9181899, “Synthesis and Anticancer Properties of New 3-Methylidene-1-sulfonyl-2,3-dihydroquinolin-4(1H)-ones” (Molecules, 2022)
# Tested on: HUVEC cells
# Test: MTT in vitro cytotoxicity assay, HUVEC (normal cells)
# Type: cell-based, human
# Conditions: selectivity, normal HUVEC vs HL-60 cells, 48 h
# Method: The promyelocytic leukemia HL-60 and breast cancer adenocarcinoma MCF-7 cell lines were purchased from the European Collection of Cell Cultures (ECACC). Leukemia cells were cultured in RPMI 1640 plus GlutaMax I medium (Gibco/Life Technologies, Carlsbad, CA, USA). MCF-7 cells were maintained in Minimum Essential Medium Eagle (Sigma Aldrich, St. Louis, MO, USA) and supplemented with 2 mM glutamine and men non-essential amino acid solution (Sigma Aldrich, St. Louis, MO, USA). Both media were supplemented with 10% heat-inactivated fetal bovine serum (Biological Industries, Beit-Haemek, Israel) and antibiotics (100 U/mL penicillin and 100 μg/mL streptomycin) (Sigma-Aldrich, St. Louis, MO, USA). Human umbilical vein endothelial cells (HUVECs) were purchased from the American Type Culture Collection (ATCC). Cells were cultured using EGM-2 Endothelial Medium BulletKit purchased from Lonza (Lonza, Walkersville, MD, USA). Cells were maintained at 37 °C in 5% CO2 atmosphere and grown until 80% confluent.
# The tested compounds were dissolved in sterile dimethyl sulfoxide (DMSO) and further diluted with culture medium. The final concentration of DMSO in cell cultures was less than 0.1% v/v. Controls without and with 0.1% DMSO were performed in each experiment. At the used concentration, DMSO had no effect on the observed parameters.
# The MTT (3-(4,5-dimethylthiazol-2-yl)-2,5-diphenyltetrazolium bromide) assay, which measures the activity of cellular dehydrogenases, was performed according to the Mosmann method. Exponentially growing cells were seeded into 24-well plates at a density of 8 × 10^4 cells/mL and left to grow for 24 h. After 24 h or 48 h of incubation with various concentrations of the tested compounds (dissolved in DMSO and diluted with complete culture medium), cells were incubated with 0.1 mL of MTT solution (5 mg/mL in phosphate buffered saline) for 1.5 h. The metabolically active cells reduced MTT to blue formazan crystals. The plates were centrifuged, and the supernatant was discarded. DMSO (1 mL) was added to each well to dissolve the crystals, whose absorbance was measured at 560 nm using FlexStation 3 Multi-Mode Microplate Reader (Molecular Devices, LLC, San Jose, CA, USA). The untreated cells were used as control. The IC50 values were calculated from the concentration–response curves. The data were expressed as mean ± SEM of three independent experiments.
row,Compound,HUVEC/HL-60 IC50 Ratio
1,"N.N.O=C([O-])C1(C(=O)[O-])CCC1.[Pt+2] [Carboplatin, reference compound]",1.41
2,"C=C1C(=O)c2ccccc2N(S(=O)(=O)c2ccccc2)C1CC (centres unmarked) [Compound 5a, 2-Ethyl-3-methylidene-1-(phenylsulfonyl)-2,3-dihydroquinolin-4(1H)-one]",5 and 5.50
3,"C=C1C(=O)c2ccccc2N(S(=O)(=O)c2ccccc2)C1C(C)C (centres unmarked) [Compound 5b, 3-Methylidene-1-(phenylsulfonyl)-2-(propan-2-yl)-2,3-dihydroquinolin-4(1H)-one]",2.67
4,"C=C1C(=O)c2ccccc2N(S(=O)(=O)c2ccc(Cl)cc2)C1CC (centres unmarked) [Compound 5e, 1-((4-Chlorophenyl)sulfonyl)-2-ethyl-3-methylidene-2,3-dihydroquinolin-4(1H)-one]",2.03
5,"C=C1C(=O)c2ccccc2N(S(=O)(=O)c2ccc(Cl)cc2)C1C(C)C (centres unmarked) [Compound 5f, 1-((4-Chlorophenyl)sulfonyl)-3-methylidene-2-(propan-2-yl)-2,3-dihydroquinolin-4(1H)-one]",4.30
6,"C=C1C(=O)c2cc(OC)c(OC)cc2N(S(=O)(=O)c2ccc(C)cc2)C1CC (centres unmarked) [Compound 5i, 2-Ethyl-6,7-dimethoxy-3-methylidene-1-tosyl-2,3-dihydroquinolin-4(1H)-one]",1.14
7,"C=C1C(=O)c2cc(OC)c(OC)cc2N(S(=O)(=O)c2ccc(C)cc2)C1C(C)C (centres unmarked) [Compound 5j, 6,7-Dimethoxy-3-methylidene-2-(propan-2-yl)-1-tosyl-2,3-dihydroquinolin-4(1H)-one]",2.30
8,"C=C1C(=O)c2cc(Cl)ccc2N(S(=O)(=O)c2ccc(C)cc2)C1C(C)C (centres unmarked) [Compound 5n, 6-Chloro-3-methylidene-2-(propan-2-yl)-1-tosyl-2,3-dihydroquinolin-4(1H)-one]",1.01
9,"C=C1C(=O)c2cc(Br)ccc2N(S(=O)(=O)c2ccc(C)cc2)C1CC (centres unmarked) [Compound 5q, 6. -Bromo-2-ethyl-3-methylidene-1-tosyl-2,3-dihydroquinolin-4(1H)-one]",1.64
10,"C=C1C(=O)c2cc(Br)ccc2N(S(=O)(=O)c2ccc(C)cc2)C1C(C)C (centres unmarked) [Compound 5r, 6-Bromo-3-methylidene-2-(propan-2-yl)-1-tosyl-2,3-dihydroquinolin-4(1H)-one]",2.47

# Same assay, conditions: selectivity, normal HUVEC vs HL-60 cells, 48 h; listed as 2-Ethyl-3-methylidene-1-phenylsulfonyl-2,3-dihydroquinolin-4(1H)-one
row,Compound,HUVEC/HL-60 IC50 Ratio
1,"C=C1C(=O)c2ccccc2N(S(=O)(=O)c2ccccc2)C1CC (centres unmarked) [Compound 5a, 2-Ethyl-3-methylidene-1-(phenylsulfonyl)-2,3-dihydroquinolin-4(1H)-one]",over 5

# Values joined by “and” are separate entries in the source; they are usually repeats but may differ in a detail not shown here. Equal values may be shown once.
